Measured values taken from patent US20140096274A1 (published 2014).
Where a chain is given by its changes, count along the chain named. Results are given in words; binding and its absence hold for the method and conditions named. Some results given as binding are weak or reduced against the parent protein; the word gives no strength. Tags and fused reporters may be left off the sequences shown. Values belong to the binder of their own block, whether it stands above or below them.

How the values were obtained:
human OPG-Fc (human) [1] = target: T1, human OPG-Fc (human) (UniProt O00300); assay: SPR, hOPG-Fc immobilized on CM5 chip, 25 C
T1 sequence (looked up): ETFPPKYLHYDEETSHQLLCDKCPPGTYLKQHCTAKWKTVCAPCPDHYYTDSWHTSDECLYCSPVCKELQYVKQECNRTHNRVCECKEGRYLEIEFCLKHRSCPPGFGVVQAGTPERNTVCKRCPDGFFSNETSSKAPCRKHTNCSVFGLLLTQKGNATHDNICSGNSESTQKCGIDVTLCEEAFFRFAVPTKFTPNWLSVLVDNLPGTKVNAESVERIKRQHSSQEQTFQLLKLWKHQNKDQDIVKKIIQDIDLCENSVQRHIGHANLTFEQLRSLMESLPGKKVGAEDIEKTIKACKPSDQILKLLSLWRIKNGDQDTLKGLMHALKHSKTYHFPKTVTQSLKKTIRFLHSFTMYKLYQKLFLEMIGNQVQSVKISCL

human OPG-Fc (human) [2] = target: T1, human OPG-Fc (human); assay: SPR, hOPG-Fc directly immobilized on a CM5 chip, 25 C
human OPG-Fc (human) [3] = target: T1, human OPG-Fc (human); assay: ELISA, wells coated with hOPG-Fc, concentration range of RANKL (axis printed [OPG] (nM))
human OPG-Fc (human) [4] = target: T1, human OPG-Fc (human); assay: SPR, OPG directly immobilized on CM5 chip, RANKL 4 nM-31.25 pM
murine OPG-Fc (mouse) [5] = target: T2, murine OPG-Fc (mouse) (UniProt O08712); assay: ELISA, immobilized murine OPG-Fc, % binding normalised to the highest concentration
T2 sequence (looked up): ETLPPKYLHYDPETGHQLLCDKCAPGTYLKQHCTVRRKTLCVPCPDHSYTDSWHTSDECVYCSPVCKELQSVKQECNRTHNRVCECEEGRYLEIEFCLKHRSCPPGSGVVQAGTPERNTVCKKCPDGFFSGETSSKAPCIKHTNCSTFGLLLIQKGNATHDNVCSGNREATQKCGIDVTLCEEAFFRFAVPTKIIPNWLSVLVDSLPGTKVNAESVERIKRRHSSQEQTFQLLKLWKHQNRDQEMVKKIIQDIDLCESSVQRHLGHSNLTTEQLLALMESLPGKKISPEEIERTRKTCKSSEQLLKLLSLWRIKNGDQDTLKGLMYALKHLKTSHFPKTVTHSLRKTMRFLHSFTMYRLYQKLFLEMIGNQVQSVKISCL

murine RANK-Fc [6] = target: T3, murine RANK-Fc (mouse, UniProt O35305 31-214); assay: SPR single cycle kinetics, mRANK-Fc captured at 20-40 RU, five injections from about 0.3 to 15 nM, 600 s dissociation
T3 construct: also called mRANK-Fc; mRANK-FC; not shown: Fc part of the bought fusion; not described
T3 sequence (looked up): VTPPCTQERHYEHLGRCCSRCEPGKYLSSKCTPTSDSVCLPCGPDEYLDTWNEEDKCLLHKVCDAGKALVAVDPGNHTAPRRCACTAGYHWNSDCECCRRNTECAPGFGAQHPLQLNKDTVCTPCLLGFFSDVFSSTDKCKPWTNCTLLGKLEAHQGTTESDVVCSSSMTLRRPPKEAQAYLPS

murine RANK-Fc [7] = target: T3, murine RANK-Fc; assay: SPR, mRANK-Fc captured at high density (1880 RU), injection 0-180 s, dissociation to 650 s
murine RANK-Fc [8] = target: T3, murine RANK-Fc; assay: SPR, whole cycle: capture of RANK-Fc at high density, injection of RANKL, regeneration; arrows mark the response expected for 1:1, 1:2, 1:3 stoichiometry
human RANK-Fc [9] = target: T4, human RANK-Fc (human, UniProt Q9Y6Q6 30-212); assay: SPR single cycle kinetics, hRANK-Fc captured at 20-40 RU, five injections from about 0.3 to 15 nM, 600 s dissociation
T4 construct: also called hRANK-Fc; hRANK-FC; not shown: Fc part of the bought fusion; not described
T4 sequence (looked up): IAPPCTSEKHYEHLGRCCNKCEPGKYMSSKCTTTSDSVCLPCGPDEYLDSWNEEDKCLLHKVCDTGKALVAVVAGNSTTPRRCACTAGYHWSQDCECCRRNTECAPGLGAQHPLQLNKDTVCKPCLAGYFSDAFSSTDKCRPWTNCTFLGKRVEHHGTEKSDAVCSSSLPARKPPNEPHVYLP

murine RANK-Fc [10] = target: T3, murine RANK-Fc; assay: SPR single cycle kinetics
human RANK-Fc [11] = target: T4, human RANK-Fc; assay: SPR single cycle kinetics
murine RANK-Fc [12] = target: T3, murine RANK-Fc; assay: competitive ELISA, RANK-Fc coated wells, flag-mRANKL detected with anti-flag antibody, fixed concentrations of mD2 as competitor
murine RANK-Fc [13] = target: T3, murine RANK-Fc; assay: ELISA, immobilized mRANK-Fc, flag-mRANKL WT detected with anti-flag antibody, fixed concentrations of mD2 as competitor
murine RANK-Fc [14] = target: T3, murine RANK-Fc; assay: SPR, mRANK-Fc at low density
murine RANK-Fc [15] = target: T3, murine RANK-Fc; assay: SPR, mRANK-Fc captured at very low density (7.5 RU), injection 0-180 s, dissociation to 650 s
human OPG-Fc (human) [16] = target: T1, human OPG-Fc (human); assay: ELISA, wells coated with hOPG-FC
human OPG-Fc (human) [17] = target: T1, human OPG-Fc (human); assay: SPR, hOPG-Fc directly immobilized on a CM5 chip, 25 C [contd.]
murine OPG-Fc (mouse) [18] = target: T2, murine OPG-Fc (mouse); assay: ELISA, immobilized murine OPG-Fc

binding (human OPG-Fc (human) [1]): binds
binding (human OPG-Fc (human) [2]): binds
binding (human OPG-Fc (human) [3]): binds
binding (human OPG-Fc (human) [4]): binds
binding (murine OPG-Fc (mouse) [5]): binds
B1: trimeric murine wild-type RANKL (R&D systems) (ligand, mouse, UniProt O35235 158-316, looked up)
chain: KPEAQPFAHLTINAASIPSGSHKVTLSSWYHDRGWAKISNMTLSNGKLRVNQDGFYYLYANICFRHHETSGSVPTDYLQLMVYVVKTSIKIPSSHNLMKGGSTKNWSGNSEFHFYSINVGGFFKLRAGEEISIQVSNPSLLDPDQDATYFGAFKVQDID
notes: Bought soluble trimeric protein; also called murine RANKL wt; mRANKL WT

binding (murine RANK-Fc [6]): binds
binding (murine RANK-Fc [7]): binds
binding (murine RANK-Fc [8]): binds
binding (human RANK-Fc [9]): binds
binding (murine RANK-Fc [10]): binds
binding (human RANK-Fc [11]): binds
binding (murine RANK-Fc [12]): binds
binding (murine RANK-Fc [13]): binds
binding (murine RANK-Fc [14]): binds
binding (murine RANK-Fc [15]): binds
B2: murine flagRANKL WT (wild-type mRANKL containing an N-terminal flagtag) (ligand, mouse, UniProt O35235 160-316, looked up)
chain: EAQPFAHLTINAASIPSGSHKVTLSSWYHDRGWAKISNMTLSNGKLRVNQDGFYYLYANICFRHHETSGSVPTDYLQLMVYVVKTSIKIPSSHNLMKGGSTKNWSGNSEFHFYSINVGGFFKLRAGEEISIQVSNPSLLDPDQDATYFGAFKVQDID
notes: Trimeric; also called flag-mRANKL WT; mWT; not shown: N-terminal flagtag

binding (human OPG-Fc (human) [1]): binds
binding (human OPG-Fc (human) [3]): binds
binding (human OPG-Fc (human) [16]): binds
binding (human OPG-Fc (human) [17]): binds
binding (human OPG-Fc (human) [4]): binds
binding (murine OPG-Fc (mouse) [18]): binds
binding (murine OPG-Fc (mouse) [5]): binds
B3: murine RANKL heterodimeric variant mD1 (mouse Dimer 1) (ligand)
chain 1: B2 chain with K35D, C61S, F112Y
chain 2: B2 chain with F53Y, K97D, F120Y
notes: range 160-316; Heterodimer of monomer A (His-tagged) and monomer B, co-expressed in E. coli; also called RANKL dimer 1; RANK-L Dimer 1; not shown: hexahistidine-tag fused to monomer A

binding (human OPG-Fc (human) [1]): binds
binding (human OPG-Fc (human) [3]): binds
binding (human OPG-Fc (human) [16]): binds
binding (human OPG-Fc (human) [17]): binds
binding (human OPG-Fc (human) [4]): binds
binding (murine OPG-Fc (mouse) [18]): binds
binding (murine OPG-Fc (mouse) [5]): binds
B4: murine RANKL heterodimeric variant mD2 (mouse Dimer 2) (ligand)
chain 1: B2 chain with T9V, C61S, S70K, F112Y
chain 2: B2 chain with T9V, F53Y, S70K, K97D, F120Y
notes: range 160-316; Heterodimer of monomer A (His-tagged) and monomer B, co-expressed in E. coli; also called RANKL dimer 2; dRANKL D2; not shown: hexahistidine-tag fused to monomer A
